Here are results for one substance from paper doi:10.1101/155614.

No constants are given. Whether binding was seen depends on the method and setting. A result given as binding can be weak or reduced; the word gives no strength.

For this assay, the target named is T1, mature GDF8 (growth/differentiation factor 8, myostatin), unbound mature ligand (UniProt O14793).
T1 sequence: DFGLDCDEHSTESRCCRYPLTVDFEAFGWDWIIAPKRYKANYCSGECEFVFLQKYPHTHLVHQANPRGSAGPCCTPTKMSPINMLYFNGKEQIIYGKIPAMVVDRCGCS
As to the kind of experiment: SEC.

Turning to “GDF8 prodomain, mammalian derived (domain or fragment)”, the binding result is given as “binds”.
